At least one structure is not confirmed: it was looked up by name or label, or the drawing left a doubt.
What was measured:
[1] = Hyperinsulinemic euglycemic clamp in Zucker rats (rate of glucose disposal, Rd); type: in vivo, rat; conditions: obese rats, pioglitazone treatment
Protocol: Peripheral insulin sensitivity (measured as the rate of glucose disposal, Rd) of the rat and human groups was measured using the hyperinsulinemic euglycemic clamp procedure. Clinical characteristics of the rats and humans are detailed in Table 1. OPN expression in adipose tissue was elevated in obese, insulin resistant rats (17-fold) and humans (4.6-fold) compared to insulin sensitive lean controls. […] In fact, when the pre-treatment patient data was combined, there was a significant correlation between adipose tissue OPN RNA levels and Rd (FIG. 1C).
Male C57Bl/6J WT mice (cat #000664) and OPN KO mice (B6.Cg-Spp1tm2blh/J, cat #004936) were purchased from Jackson Laboratories. […]
Insulin sensitivity was determined by hyperinsulinemic euglycemic clamp, as previously published (Hevener, A L, et al., 2001, Diabetes 50, 2316-2322). […] Plasma glucose specific activity was measured after deproteinization with barium hydroxide and zinc sulfate (Revers, R R, 1984, J Clin Invest 73, 664-672). Hepatic glucose output (HGO) and glucose disposal rate (GDR) were calculated for the basal period and the steady-state portion of the glucose clamp using the Steele equation for steady-state conditions (Steele R. Influences of glucose loading and of injected insulin on hepatic glucose output. Ann N Y Acad Sci 82: 420-430, 1959). […]

[2] = Hyperinsulinemic-euglycemic clamp in human patients (rate of glucose disposal, Rd); type: in vivo; conditions: obese humans, pioglitazone treatment
OPN [3] = assay: Adipose tissue OPN RNA levels by quantitative RT-PCR, human patients; type: in vivo; conditions: obese humans, pioglitazone treatment, FIG. 1B
OPN [4] = assay: Adipose tissue OPN RNA levels by quantitative RT-PCR, Zucker rats; type: in vivo, rat; conditions: obese rats, pioglitazone treatment, FIG. 1A

With CCc1ccc(CCOc2ccc(CC3SC(=O)NC3=O)cc2)nc1 (stereo not shown) [pioglitazone] the “insulin sensitivity (effect of treatment, in words)” value [1] was “increased”, the “insulin sensitivity (effect of treatment, in words)” value [2] was “increased” and the “OPN expression in the adipose tissue (effect of treatment, in words)” value (OPN [3]) was “normalized”. The “OPN expression in the adipose tissue (effect of treatment, in words)” value (OPN [4]) was “normalized”.
